Measured values reported in article PMC7819943, “Rice protein-binding microarrays: a tool to detect cis-acting elements near promoter regions in rice”.
The list shows a part of the results.

Amino acid sequences for entries named in this document (tags omitted).
UniProt Q0JBA9, entry or part of it: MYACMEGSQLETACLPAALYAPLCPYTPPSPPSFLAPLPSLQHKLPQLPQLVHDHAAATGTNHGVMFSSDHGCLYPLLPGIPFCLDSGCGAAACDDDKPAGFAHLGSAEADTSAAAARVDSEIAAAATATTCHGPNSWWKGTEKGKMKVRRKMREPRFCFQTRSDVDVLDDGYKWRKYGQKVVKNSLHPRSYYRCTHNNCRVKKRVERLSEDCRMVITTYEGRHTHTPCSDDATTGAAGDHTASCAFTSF

The sequences below were run against OsWRKY34 (Oryza sativa, UniProt Q0JBA9 1-250) (assay: protein-binding microarray (RPBM); PBS, 2% BSA, 51.3 ng/ul salmon testes DNA, 50 uM zinc acetate, 200 nM TF, 25 C, 1 h; high values mean tight binding). Details: protein: recombinant; tags: N-terminal polyhistidine and DsRed monomer fusion (pET32a); label: CyDye5-dUTP incorporated in the synthesized complementary strand; 3' TTTTT single-stranded linker to array surface; dsDNA, one strand shown.
Outline: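 Per-feature fluorescence intensity (arbitrary units), read on an Axon 4000B scanner, is the binding signal. Transcription factors carrying an N-terminal polyhistidine tag and DsRed fusion were expressed in E. coli BL21-CodonPlus and purified on Ni–NTA. A custom Agilent array, made double-stranded by primer extension with Cy5-dUTP and blocked with 2% BSA, was incubated with 200 nM protein in PBS, 2% BSA, salmon testes DNA and 50 µM zinc acetate at 25 °C for 1 h and then washed.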
For “AATACCGTATCCCTCCCGCGGCTCCGACTCCAAACCTAACCGGAGTCACCTAGTGCAG”, the binding signal was 8170 fluorescence intensity (a.u.). In the case of “GAGAAGAGGAGAGAGAGTGAGAGTGGGCGACAATTTTATCCGGAGTCACCTAGTGCAG”, the binding signal is reported as 64200 fluorescence intensity (a.u.). For “ATGTTTAGATCCCGGCAAAAATTTTCACTGTCTCATATCACGGAGTCACCTAGTGCAG”, the binding signal was 9220 fluorescence intensity (a.u.). With “AGACCGACTCCGTTTCCTCTTCGCGTCTCCTTCCTCACCGCGGAGTCACCTAGTGCAG” the binding signal was 8900 fluorescence intensity (a.u.). “GAGTTAAAATACATTTCCTGCCGCTGGCCCTTGTTGACACCGGAGTCACCTAGTGCAG” was tested, and the binding signal was 8140 fluorescence intensity (a.u.). For “GCTTTCCTTTTCTTCTTCTTCTTTTCAGATCCAAGGTTAACGGAGTCACCTAGTGCAG”, the binding signal was 10900 fluorescence intensity (a.u.). With “CAAATCGCTGCCGCCGCCGCCGCCCGCTCGCTAGGGTTTCCGGAGTCACCTAGTGCAG” the binding signal was 8740 fluorescence intensity (a.u.). For “GCGCTAAATGTCGTGTCACCATGGATAAGTCTGAGTCGACCGGAGTCACCTAGTGCAG”, the binding signal was 8770 fluorescence intensity (a.u.). For “GCCAGCAACCAAACACACCCTAATGCACCTTTCTCTCTATCGGAGTCACCTAGTGCAG”, the binding signal was 9470 fluorescence intensity (a.u.). In the case of “TCAGCCATGAATCCTGCGCACGTTTTTAGAATGAAGATTTCGGAGTCACCTAGTGCAG”, the binding signal is reported as 10300 fluorescence intensity (a.u.). For “GCCACCGCCACCGCCACGCTCGCGCTCCAGCTTGACCGCGCGGAGTCACCTAGTGCAG”, the binding signal was 9460 fluorescence intensity (a.u.). For “CGCGCCATTTCGGTTCCTGGGCCAACCGTGCCCCGTCCACCGGAGTCACCTAGTGCAG”, the binding signal was 9450 fluorescence intensity (a.u.). “AAACTTTCCTACACACAAACTTGCGACTTTTTCATCACATCGGAGTCACCTAGTGCAG” was tested, and the binding signal was 8180 fluorescence intensity (a.u.). In the case of “GCTCGCCCGTCTTTCGCTCTGCCCGCAGCCCGCCGCCGCTCGGAGTCACCTAGTGCAG”, the binding signal is reported as 14000 fluorescence intensity (a.u.). With “AATCCATGTCTCGTCTCTATAATCTGTGTGTATATAGCTCCGGAGTCACCTAGTGCAG” the binding signal was 10900 fluorescence intensity (a.u.). “TCTATATATACGTGCTACCGTTTACTATAAATAACCACATCGGAGTCACCTAGTGCAG” was tested, and the binding signal was 9340 fluorescence intensity (a.u.). For “GTGGGAGGGAGGGCGGCGAGCTGCGCGGCGAACCTCGAGCCGGAGTCACCTAGTGCAG”, the binding signal was 8120 fluorescence intensity (a.u.). With “ACTCATCTCATCTCTGATCTCTCATCTCATCTCACCAACCCGGAGTCACCTAGTGCAG” the binding signal was 11100 fluorescence intensity (a.u.). With “CAGCTATCATTAGCTGTCTAGTCACGTCCTATTTTTTTATCGGAGTCACCTAGTGCAG” the binding signal was 8290 fluorescence intensity (a.u.). With “AGGTCATCGCAGGGCTCCTCTCCATCGCAGCCGCTCCAGCCGGAGTCACCTAGTGCAG” the binding signal was 8910 fluorescence intensity (a.u.). With “TGCTAAAATTTAACTTGGAGAGTGGGGTTGGGAGGCTATTCGGAGTCACCTAGTGCAG” the binding signal was 9090 fluorescence intensity (a.u.). For “TGTGGCATCAAGGGGTAAAAAGGGCACGGGGAGGGTTGAGCGGAGTCACCTAGTGCAG”, the binding signal was 9710 fluorescence intensity (a.u.). With “GACCTATCCCTAGCAGATCTCCCTACTCCCATCCCCGCCGCGGAGTCACCTAGTGCAG” the binding signal was 9420 fluorescence intensity (a.u.). With “TCTTTCTTTCTCTCTCCATACAGGTGGTCAATGCATTCAACGGAGTCACCTAGTGCAG” the binding signal was 8570 fluorescence intensity (a.u.). In the case of “TATTTTTTTTTCGTTTTTCATCGTAGTTTATTTTACAACACGGAGTCACCTAGTGCAG”, the binding signal is reported as 12400 fluorescence intensity (a.u.). For “AACTTTATTTTTTTGTTTTTATACAACATTTATCTCTTCGCGGAGTCACCTAGTGCAG”, the binding signal was 9520 fluorescence intensity (a.u.). For “CTTTTCTTTTTTTTTCATTATTCTAACTTATATCTCGTTTCGGAGTCACCTAGTGCAG”, the binding signal was 9340 fluorescence intensity (a.u.). In the case of “GCCTGGACGACCTGGTTTCACGCGTTTGTGAGCCACATACCGGAGTCACCTAGTGCAG”, the binding signal is reported as 9060 fluorescence intensity (a.u.). With “CCGCCGCCACCGCAAACTCTCTTTCTTCTCTCGCCTGGACCGGAGTCACCTAGTGCAG” the binding signal was 9650 fluorescence intensity (a.u.). For “GCCGAAAGCCCACCACACACCGTTCCTCCTCGAGACCAGCCGGAGTCACCTAGTGCAG”, the binding signal was 10100 fluorescence intensity (a.u.). For “TTTTTTAACTGACATGTGGGGCTATGATTTTTATTATTTTCGGAGTCACCTAGTGCAG”, the binding signal was 9300 fluorescence intensity (a.u.). With “GATCCATCTAGCTAATTGTTGAATCCATCTAAGCTTAATGCGGAGTCACCTAGTGCAG” the binding signal was 8310 fluorescence intensity (a.u.). For “TTACTTGCTTCTATGTATGGCAACTTTTCTACATTGCAATCGGAGTCACCTAGTGCAG”, the binding signal was 9890 fluorescence intensity (a.u.). For “CCGCCGCCGCGTCGGGTGTGTGGTAGGGTTTGGGGCGATGCGGAGTCACCTAGTGCAG”, the binding signal was 9950 fluorescence intensity (a.u.). In the case of “CTATAAATTAATTTTTATTCCTCGATACGTTTTGCCTTATCGGAGTCACCTAGTGCAG”, the binding signal is reported as 8220 fluorescence intensity (a.u.). “TTTCATTTCACCAACTAAACAGGCCCATAATGCCGATCATCGGAGTCACCTAGTGCAG” was tested, and the binding signal was 8240 fluorescence intensity (a.u.). In the case of “TGCTACTTAGGTTACCGCAATCACTAGACTTTGCCTTTGACGGAGTCACCTAGTGCAG”, the binding signal is reported as 9580 fluorescence intensity (a.u.). With “CCCGTAATCCATCCGGGAGCTCCGTCCCTCGCTTCGGCATCGGAGTCACCTAGTGCAG” the binding signal was 8220 fluorescence intensity (a.u.). “CATCACTAATCACTATATCATTGGGCTAGTTTAGGTTGATCGGAGTCACCTAGTGCAG” was tested, and the binding signal was 8600 fluorescence intensity (a.u.). “GTCTGTGTCTGTTACTCTGTCTATTTATCAACTTGAGGGCCGGAGTCACCTAGTGCAG” was tested, and the binding signal was 8500 fluorescence intensity (a.u.). In the case of “GAATTGATTCCCTTGTATCCGGGATTTGATTTGATTTTGGCGGAGTCACCTAGTGCAG”, the binding signal is reported as 8430 fluorescence intensity (a.u.). For “TTCCCTCGTACCATTTTCGCTGTTGGTCTTTATTGCAGCACGGAGTCACCTAGTGCAG”, the binding signal was 10100 fluorescence intensity (a.u.). With “TTATAAGTTTTTTTACACACACCTGCTATGTAACTTATATCGGAGTCACCTAGTGCAG” the binding signal was 8450 fluorescence intensity (a.u.). In the case of “GCCTGCACCTGTACGTTAGCGGTTAGCCCTGGTCAAGAGTCGGAGTCACCTAGTGCAG”, the binding signal is reported as 8220 fluorescence intensity (a.u.). With “GTCGTGTTCTTCTTCTTCTTCCATTCAGTCTTGTGCTTGACGGAGTCACCTAGTGCAG” the binding signal was 12200 fluorescence intensity (a.u.). With “AGGGCCCAGGTGACGGCCGCCCGCACGCACACGACACGACCGGAGTCACCTAGTGCAG” the binding signal was 8260 fluorescence intensity (a.u.). For “GCTTTTTATACGAGTTCCAGCTCCGCCGCGAGTCCGCGACCGGAGTCACCTAGTGCAG”, the binding signal was 9870 fluorescence intensity (a.u.). For “TCCTCTCGATCTCCATTCGTTTTTGAGTTCCTCGTTTGCTCGGAGTCACCTAGTGCAG”, the binding signal was 12000 fluorescence intensity (a.u.). “TGCTCCTATATATACTCATCTTAACCCCTGCCAAAATCTCCGGAGTCACCTAGTGCAG” was tested, and the binding signal was 8510 fluorescence intensity (a.u.). For “TCTGCCATCGTTACCAAGTTGTCACTTTCTTTTGTCGATTCGGAGTCACCTAGTGCAG”, the binding signal was 9520 fluorescence intensity (a.u.). With “ATTTTTTTTATGGTGCATATGTTACATAGCTTCTCAACATCGGAGTCACCTAGTGCAG” the binding signal was 8870 fluorescence intensity (a.u.). “GCCGATTGTCCCTCACGCCAAACCATCACGTGTGCGCTTCCGGAGTCACCTAGTGCAG” was tested, and the binding signal was 10600 fluorescence intensity (a.u.). “CGGTGTTCCGCCGTTGACTTGACTCCGGTAGTCGGATGATCGGAGTCACCTAGTGCAG” was tested, and the binding signal was 8890 fluorescence intensity (a.u.). For “ACCTCTTCTTCTCTTTGTCCCCTTCTCCATTTCCAAATTCCGGAGTCACCTAGTGCAG”, the binding signal was 9460 fluorescence intensity (a.u.).
